Patent US20100256229A1, “COMPOSITIONS OF CHOLINESTERASE INHIBITORS” (priority 2009, published 2010)
At least one read-out could not be matched to a standard name with certainty.

The chains behind the UniProt entries cited, without tags or fusion partners. Residues count along the entry.
UniProt P22303, 32-614: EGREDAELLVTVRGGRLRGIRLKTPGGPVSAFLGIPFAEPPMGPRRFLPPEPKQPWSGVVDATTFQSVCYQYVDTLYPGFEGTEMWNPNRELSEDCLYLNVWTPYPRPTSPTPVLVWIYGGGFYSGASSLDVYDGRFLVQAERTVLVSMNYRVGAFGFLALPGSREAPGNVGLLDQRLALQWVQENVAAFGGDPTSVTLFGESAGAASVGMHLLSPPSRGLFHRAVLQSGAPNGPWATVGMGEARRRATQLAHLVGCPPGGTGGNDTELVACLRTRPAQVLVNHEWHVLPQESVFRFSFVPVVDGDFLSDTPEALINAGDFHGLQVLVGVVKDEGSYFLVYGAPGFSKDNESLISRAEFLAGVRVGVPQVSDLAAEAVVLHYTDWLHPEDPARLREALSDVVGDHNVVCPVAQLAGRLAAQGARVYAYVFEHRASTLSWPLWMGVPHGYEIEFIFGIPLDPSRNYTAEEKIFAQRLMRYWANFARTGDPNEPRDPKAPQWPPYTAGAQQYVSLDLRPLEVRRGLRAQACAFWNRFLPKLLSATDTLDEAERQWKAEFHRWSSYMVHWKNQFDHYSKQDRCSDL

Biological target: rhAChE (Homo sapiens, UniProt P22303)
Assay: Decarbamylation / reconstitution of inhibited enzyme
Conditions: phosphate buffer, 37° C.
Description: Next, the release of amphetamine from inhibited cholinesterase was investigated indirectly by monitoring reconstitution of enzyme activity as described above. […] The enzyme was separated from small organic molecules (carbamate and possible degradation products) by size exclusion chromatography over a Sephadex column. Purified, inhibited enzyme was incubated in phosphate buffer at 37° C., aliquots were drawn at various time points and the enzymatic activity was determined as described above. The data were plotted as the natural logarithm of the percent inhibition versus time according to a first-order kinetics model. The decarbamylation rate constant k was determined as the slope of this line. The halflife t1/2 is directly related to k (k=−ln(0.500)/t1/2).

SMILES	decarbamylation half-life t1/2 [h]
C[C@@H](Cc1ccccc1)NC(=O)Oc1cccc([C@H](C)N(C)C)c1 [Compound 4a]	1.2
C[C@H](Cc1ccccc1)NC(=O)Oc1cccc([C@H](C)N(C)C)c1 [Compound 4b]	12
C[C@@H](c1cccc(OC(=O)N(C)[C@@H](C)Cc2ccccc2)c1)N(C)C [Compound 4c]	>24
CC(c1cccc(OC(=O)N(C)C(C)Cc2ccccc2)c1)N(C)C (stereo not shown) [Compound 4d]	>24
